Results are given in words; binding and its absence hold for the method and conditions named. Binding seen in cells or lysates may run through a third protein. Some entries that bind do so weakly or less than the wild type. Where a sequence is shown, tags or fusion partners need not be part of it.
Experiments:
Assay in all cases: co-IP; nuclear extracts of E14/T ESCs transfected with (Flag)3-Tet2 constructs and (HA)3-NANOG; 5 ug Flag antibody overnight at 4°C, Protein G Sepharose; lysis/wash buffer 20 mM Hepes pH 7.6, 350 mM KCl, 0.2 mM EDTA, 1.5 mM MgCl2, 20% glycerol, NP-40, DTT; Benzonase-treated; immunoblot
[1] = target: (Flag)3-TET2 N terminus (1-1,221) (UniProt Q4JK59)
[2] = target: (Flag)3-TET2 C terminus (924-1,911) (UniProt Q4JK59)
[3] = target: (Flag)3-TET2 truncation 924-1,377 (UniProt Q4JK59)
[4] = target: T1, (Flag)3-TET2 truncation 1-828 (UniProt Q4JK59)
T1 sequence: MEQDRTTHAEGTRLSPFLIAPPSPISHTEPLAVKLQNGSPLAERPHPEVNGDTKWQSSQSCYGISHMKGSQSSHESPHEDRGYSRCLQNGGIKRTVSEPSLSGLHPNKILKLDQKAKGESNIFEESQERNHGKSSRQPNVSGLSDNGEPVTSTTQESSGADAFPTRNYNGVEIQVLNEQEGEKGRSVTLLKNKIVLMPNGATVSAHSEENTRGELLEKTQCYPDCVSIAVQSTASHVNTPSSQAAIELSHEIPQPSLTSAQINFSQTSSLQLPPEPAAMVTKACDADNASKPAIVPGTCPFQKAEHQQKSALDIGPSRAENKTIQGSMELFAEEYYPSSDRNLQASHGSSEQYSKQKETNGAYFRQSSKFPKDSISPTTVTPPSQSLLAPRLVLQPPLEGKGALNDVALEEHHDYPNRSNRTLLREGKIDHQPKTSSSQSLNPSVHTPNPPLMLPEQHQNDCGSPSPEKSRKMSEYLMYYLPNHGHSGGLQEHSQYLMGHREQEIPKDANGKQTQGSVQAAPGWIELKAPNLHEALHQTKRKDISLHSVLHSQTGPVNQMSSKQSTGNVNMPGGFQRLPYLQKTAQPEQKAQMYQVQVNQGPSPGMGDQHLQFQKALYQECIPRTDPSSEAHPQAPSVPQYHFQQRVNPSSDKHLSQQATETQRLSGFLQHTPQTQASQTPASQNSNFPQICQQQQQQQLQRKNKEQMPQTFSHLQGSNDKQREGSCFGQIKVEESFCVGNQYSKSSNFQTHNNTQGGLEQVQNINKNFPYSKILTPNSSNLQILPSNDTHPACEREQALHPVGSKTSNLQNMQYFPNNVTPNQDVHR

[5] = target: (Flag)3-TET2 full length (TET2 WT) (UniProt Q4JK59)

Measured: binding

B1: (HA)3-NANOG (protein, UniProt Q80Z64 1-305)
chain: MSVGLPGPHSLPSSEEASNSGNASSMPAVFHPENYSCLQGSATEMLCTEAASPRPSSEDLPLQGSPDSSTSPKQKLSSPEADKGPEEEENKVLARKQKMRTVFSQAQLCALKDRFQKQKYLSLQQMQELSSILNLSYKQVKTWFQNQRMKCKRWQKNQWLKTSNGLIQKGSAPVEYPSIHCSYPQGYLVNASGSLSMWGSQTWTNPTWSSQTWTNPTWNNQTWTNPTWSSQAWTAQSWNGQPWNAAPLHNFGEDFLQPYVQLQQNFSASDLEVNLEATRESHAHFSTPQALELFLNYSVTPPGEI
binds: all assays above

— paper PMC6776666
